Measurements from paper PMC10417424.
Results are given in words; binding and its absence hold for the method and conditions named. In cells and extracts the contact can be indirect. Some entries that bind do so weakly or less than the wild type.

The chains behind the UniProt entries cited, without tags or fusion partners.
UniProt P35222: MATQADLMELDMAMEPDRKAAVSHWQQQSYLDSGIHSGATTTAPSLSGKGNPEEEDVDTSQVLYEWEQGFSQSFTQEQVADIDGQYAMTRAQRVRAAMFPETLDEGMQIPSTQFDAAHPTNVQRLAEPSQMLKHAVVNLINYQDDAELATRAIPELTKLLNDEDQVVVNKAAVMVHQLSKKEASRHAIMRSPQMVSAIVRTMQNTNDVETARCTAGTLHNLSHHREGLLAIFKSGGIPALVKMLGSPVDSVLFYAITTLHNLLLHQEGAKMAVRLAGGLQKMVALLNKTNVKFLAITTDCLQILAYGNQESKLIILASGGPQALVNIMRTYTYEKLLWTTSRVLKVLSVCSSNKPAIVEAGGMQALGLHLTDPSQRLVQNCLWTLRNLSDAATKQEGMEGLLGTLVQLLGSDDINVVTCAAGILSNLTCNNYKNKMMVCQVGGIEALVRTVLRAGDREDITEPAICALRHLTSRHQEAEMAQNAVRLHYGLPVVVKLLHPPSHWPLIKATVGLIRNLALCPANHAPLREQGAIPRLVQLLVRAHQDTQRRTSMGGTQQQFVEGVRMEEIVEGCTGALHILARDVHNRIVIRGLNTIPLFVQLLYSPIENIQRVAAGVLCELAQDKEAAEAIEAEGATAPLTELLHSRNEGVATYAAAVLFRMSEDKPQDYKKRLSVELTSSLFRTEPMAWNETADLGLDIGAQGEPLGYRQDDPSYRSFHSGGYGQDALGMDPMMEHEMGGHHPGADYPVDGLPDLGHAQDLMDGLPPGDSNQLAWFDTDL
UniProt Q96GG9: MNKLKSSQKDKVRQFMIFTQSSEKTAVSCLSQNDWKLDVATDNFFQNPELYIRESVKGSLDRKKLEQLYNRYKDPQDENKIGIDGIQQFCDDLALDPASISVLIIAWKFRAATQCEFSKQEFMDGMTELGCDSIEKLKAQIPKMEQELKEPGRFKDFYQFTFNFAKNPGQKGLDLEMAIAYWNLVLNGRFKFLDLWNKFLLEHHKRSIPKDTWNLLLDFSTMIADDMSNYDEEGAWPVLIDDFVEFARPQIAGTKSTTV
UniProt Q9UJU2: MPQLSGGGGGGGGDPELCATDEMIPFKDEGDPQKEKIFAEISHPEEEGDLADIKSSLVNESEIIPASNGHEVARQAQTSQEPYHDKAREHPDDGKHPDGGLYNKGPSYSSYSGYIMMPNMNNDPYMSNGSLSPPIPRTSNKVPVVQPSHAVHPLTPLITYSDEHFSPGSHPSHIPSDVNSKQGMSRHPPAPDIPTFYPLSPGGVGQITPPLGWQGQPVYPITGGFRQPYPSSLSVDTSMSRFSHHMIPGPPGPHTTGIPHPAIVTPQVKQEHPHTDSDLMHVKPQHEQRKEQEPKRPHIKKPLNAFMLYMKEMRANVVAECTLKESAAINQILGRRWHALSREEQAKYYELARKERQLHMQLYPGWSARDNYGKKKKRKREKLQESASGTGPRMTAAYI
UniProt Q13620: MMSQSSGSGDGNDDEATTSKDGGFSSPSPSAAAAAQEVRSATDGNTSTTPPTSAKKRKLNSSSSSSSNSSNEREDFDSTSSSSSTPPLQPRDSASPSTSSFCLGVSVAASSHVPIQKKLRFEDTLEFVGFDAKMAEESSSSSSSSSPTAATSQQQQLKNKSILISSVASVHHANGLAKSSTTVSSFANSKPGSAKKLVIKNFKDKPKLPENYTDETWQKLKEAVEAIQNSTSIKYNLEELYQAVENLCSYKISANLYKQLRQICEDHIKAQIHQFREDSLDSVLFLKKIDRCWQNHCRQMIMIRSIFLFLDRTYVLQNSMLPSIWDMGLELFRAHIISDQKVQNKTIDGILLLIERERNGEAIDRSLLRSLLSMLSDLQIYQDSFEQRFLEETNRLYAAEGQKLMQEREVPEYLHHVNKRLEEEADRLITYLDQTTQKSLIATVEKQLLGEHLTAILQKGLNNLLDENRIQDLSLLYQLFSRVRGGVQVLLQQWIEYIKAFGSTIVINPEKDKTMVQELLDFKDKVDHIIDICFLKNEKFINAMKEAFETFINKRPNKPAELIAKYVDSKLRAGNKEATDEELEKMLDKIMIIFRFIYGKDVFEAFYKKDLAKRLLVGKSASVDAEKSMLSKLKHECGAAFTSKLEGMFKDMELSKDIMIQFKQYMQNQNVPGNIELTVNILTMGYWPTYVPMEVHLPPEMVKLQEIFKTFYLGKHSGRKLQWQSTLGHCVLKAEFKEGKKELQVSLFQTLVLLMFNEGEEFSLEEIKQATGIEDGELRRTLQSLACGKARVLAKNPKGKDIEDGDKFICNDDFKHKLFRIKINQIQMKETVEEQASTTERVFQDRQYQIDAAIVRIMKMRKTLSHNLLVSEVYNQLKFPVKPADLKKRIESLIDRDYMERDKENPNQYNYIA

What was measured:
[1] = target: β-catenin (human (endogenous in DU145)) (UniProt P35222); experiment: co-IP; IP with anti-β-catenin antibody, detection with anti-Lef1 antibodies; DU145 cells and DU145 DCUN1D1-KD cells transfected with pCDNA Flag-DCUN1D1 (DCUN1D1 expression restored)
[2] = target: β-catenin (human (endogenous in DU145)) (UniProt P35222); experiment: condition: only in DU145 DCUN1D1 KD cells (shRNA knock-down of DCUN1D1); co-IP; IP with anti-β-catenin antibody, detection with anti-Lef1 antibodies; DU145 DCUN1D1-KD cells (shRNA against DCUN1D1)
[3] = target: DCUN1D1 (endogenous, DU145) (human (endogenous in DU145)) (UniProt Q96GG9); experiment: co-IP; DU145 cell extract; IP with specific DCUN1D1 antibodies, unspecific IgG as control; immunoblot against CUL1, CUL3 and CUL4B

binding [1]	binding [2]	binding [3]	Substance
binds	no binding		Lef1 (from UniProt Q9UJU2 1-399)
		binds	cullin 4B (CUL4B) (from UniProt Q13620 1-913)
